Assay results reported in patent publication US20250388543A1, “HETEROARYL COMPOUNDS FOR THE TREATMENT OF PAIN” (VERTEX PHARMACEUTICALS INCORPORATED, priority 2022, published 2025).
Some of these results come from one statement about several compounds together.

Chains of the proteins cited; added tags and fusions are not shown. Residues count along the entry.
UniProt Q9Y5Y9, 126-1722 limits assumed: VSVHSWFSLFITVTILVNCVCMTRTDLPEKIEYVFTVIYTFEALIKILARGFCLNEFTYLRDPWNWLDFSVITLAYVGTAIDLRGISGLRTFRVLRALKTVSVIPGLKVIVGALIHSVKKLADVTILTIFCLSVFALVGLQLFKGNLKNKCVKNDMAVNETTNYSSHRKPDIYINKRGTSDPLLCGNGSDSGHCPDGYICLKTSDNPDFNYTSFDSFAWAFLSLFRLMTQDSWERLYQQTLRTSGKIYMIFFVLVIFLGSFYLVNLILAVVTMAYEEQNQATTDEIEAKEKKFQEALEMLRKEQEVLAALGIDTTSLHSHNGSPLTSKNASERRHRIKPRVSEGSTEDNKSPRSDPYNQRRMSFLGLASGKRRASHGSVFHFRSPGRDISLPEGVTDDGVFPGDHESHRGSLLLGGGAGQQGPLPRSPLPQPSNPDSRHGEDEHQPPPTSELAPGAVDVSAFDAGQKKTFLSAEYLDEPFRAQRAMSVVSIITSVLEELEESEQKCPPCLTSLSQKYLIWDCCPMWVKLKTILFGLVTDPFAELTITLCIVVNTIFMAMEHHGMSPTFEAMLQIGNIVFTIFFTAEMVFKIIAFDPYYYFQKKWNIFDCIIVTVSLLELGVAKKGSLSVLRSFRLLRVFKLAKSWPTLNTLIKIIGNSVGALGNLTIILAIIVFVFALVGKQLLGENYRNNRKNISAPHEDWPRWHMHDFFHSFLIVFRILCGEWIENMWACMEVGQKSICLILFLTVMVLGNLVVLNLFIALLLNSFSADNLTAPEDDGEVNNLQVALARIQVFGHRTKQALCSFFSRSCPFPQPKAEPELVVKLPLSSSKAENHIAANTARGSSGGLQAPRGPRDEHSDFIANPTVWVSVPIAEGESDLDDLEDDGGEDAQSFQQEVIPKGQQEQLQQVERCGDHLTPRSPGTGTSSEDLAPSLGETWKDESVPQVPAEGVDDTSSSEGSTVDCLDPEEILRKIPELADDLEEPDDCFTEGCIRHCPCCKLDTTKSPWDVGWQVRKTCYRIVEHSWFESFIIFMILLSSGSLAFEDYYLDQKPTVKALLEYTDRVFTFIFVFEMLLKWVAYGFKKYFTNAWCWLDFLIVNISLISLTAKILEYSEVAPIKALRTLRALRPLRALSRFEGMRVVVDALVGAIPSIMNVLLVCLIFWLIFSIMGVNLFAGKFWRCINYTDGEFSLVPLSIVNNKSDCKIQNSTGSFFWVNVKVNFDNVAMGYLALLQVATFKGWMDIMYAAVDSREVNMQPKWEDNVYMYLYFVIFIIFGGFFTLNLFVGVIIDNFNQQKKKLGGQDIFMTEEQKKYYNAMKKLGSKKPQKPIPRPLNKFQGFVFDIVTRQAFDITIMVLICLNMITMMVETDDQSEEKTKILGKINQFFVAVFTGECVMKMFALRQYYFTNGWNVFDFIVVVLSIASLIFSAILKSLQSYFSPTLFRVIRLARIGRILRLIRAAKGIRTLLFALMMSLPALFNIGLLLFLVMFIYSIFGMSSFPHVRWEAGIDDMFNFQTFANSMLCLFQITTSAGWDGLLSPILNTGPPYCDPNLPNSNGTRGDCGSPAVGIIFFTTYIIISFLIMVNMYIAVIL

Target: human NaV 1.8 (Homo sapiens, UniProt Q9Y5Y9)
Assay: E-VIPR Assay Detecting and Measuring NaV Inhibition Properties
Type: cell-based
Details: HEK cells expressing a truncated form of human NaV 1.8 with full channel activity; electrical stimulation, membrane-potential FRET dyes; 30 minutes compound incubation; read-out: measured IC50 value in the E-VIPR Assay
Source text: E-VIPR Assay Detecting and Measuring NaV Inhibition Properties
Sodium ion channels are voltage-dependent proteins that can be activated by inducing membrane voltage changes by applying electric fields. The electrical stimulation instrument and methods of use, referred to as E-VIPR, are described in International Publication No. WO 2002/008748 A3 and C.-J. Huang et al. Characterization of voltage-gated sodium channel blockers by electrical stimulation and fluorescence detection of membrane potential, 24 Nature Biotech. 439-46 (2006), both of which are incorporated by reference in their entirety. The instrument comprises a microtiter plate handler, an optical system for exciting the coumarin dye while simultaneously recording the coumarin and oxonol emissions, a waveform generator, a current- or voltage-controlled amplifier, and parallel electrode pairs that are inserted into assay plate wells. Under integrated computer control, this instrument passes user-programmed electrical stimulus protocols to cells within the wells of the microtiter plate.
16-20 hours prior to running the assay on E-VIPR, HEK cells expressing a truncated form of human NaV 1.8 with full channel activity were seeded into microtiter 384-well plates, pre-coated with matrigel, at a density of 25,000 cells per well. 2.5-5% KIR2.1 BacMam virus was added to the final cell suspension before seeding into cell plates. HEK cells were grown in Dulbecco's Modified Eagle's Medium (DMEM) supplemented with 10% FBS (Fetal Bovine Serum, qualified; Sigma #F4135), 1% NEAA (Non-Essential Amino Acids, Gibco #11140), 1% HEPES (Gibco #15630), 1% Pen-Strep (Penicillin-Streptomycin; Gibco #15140) and 5 μg/ml Blasticidin (Gibco #R210-01). Cells were expanded in 5-layer CellSTACK culture chambers or cell culture flasks with vented caps, with 90-95% humidity and 5% CO2.
Reagents and Stock Solutions:
100 mg/mL Pluronic F-127 (Sigma #P2443), in dry DMSO
Compound Plates: Corning 384-well Polypropylene Round Bottom #3656
Cell Plates: 384-well tissue culture treated plates (Greiner #781091-2B)
2.5-5% KIR 2.1 Bacmam virus (produced in-house), prepared as described in Section 3.3 of J. A. Fornwald et al., Gene Expression in Mammalian Cells Using BacMam, a Modified Baculovirus System, 1350 Methods in Molecular Biology 95-116 (2016), the entire contents of which are incorporated by reference. The concentration used can be dependent on viral titer of each batch.
5 mM DiSBAC6(3), a voltage sensitive oxonol acceptor (CAS number 169211-44-3; 5-[3-(1,3-dihexylhexahydro-4,6-dioxo-2-thioxo-5-pyrimidinyl)-2-propen-1-ylidene]-1,3-dihexyldihydro-2-thioxo-4,6(1H,5H)-pyrimidinedione), in dry DMSO. The preparation of DiSBAC6(3) is analogous to that of DiSBAC4(3) as described in Voltage Sensing by Fluorescence Resonance Energy Transfer in Single Cells, Gonzalez, J. E. and Tsien, R. Y. (1995) Biophys. J. 69, 1272-1280.
5 mM CC2-DMPE, a commercially available membrane-bound coumarin phospholipid FRET donor (ThermoFisher Scientific catalog number K1017, CAS number 393782-57-5; tetradecanoic acid, 1,1′-[(1R)-1-[8-(6-chloro-7-hydroxy-2-oxo-2H-1-benzopyran-3-yl)-3-hydroxy-3-oxido-8-oxo-2,4-dioxa-7-aza-3-phosphaoct-1-yl]-1,2-ethanediyl]ester) was prepared in dry DMSO. See also, Improved indicators of cell membrane potential that use fluorescence resonance energy transfer, Gonzalez, J. E. and Tsien, R. Y. (1997) Chem. Biol. 4, 269-277.
Voltage Assay Background Suppression Compound (VABSC-1) is prepared in H2O (89-363 mM, range used to maintain solubility)
Human Serum (HS, Millipore #S1P1-01KL, or Sigma SLBR5469V and SLBR5470V as a 50%/50% mixture, for 25% assay final concentration)
Sodium Chloride 160 mM (9.35 g/L), Potassium Chloride, 4.5 mM (0.335 g/L), Glucose 10 mM (1.8 g/L), Magnesium Chloride (Anhydrous) 1 mM (0.095 g/L), Calcium Chloride 2 mM (0.222 g/L), HEPES 10 mM (2.38 g/L) in water. […]

IC50, < 500 nM:
CCOC(=O)c1c(-c2cc3ccccc3nc2Oc2ccc(F)c(F)c2C)[nH]c(C)c(C(O)C(N)=O)c1=O (stereo not shown) [Compound 23, ethyl 5-(2-amino-1-hydroxy-2-oxo-ethyl)-2-[2-(3,4-difluoro-2-methyl-phenoxy)-3-quinolyl]-6-methyl-4-oxo-1H-pyridine-3-carboxylate]
CCOC(=O)c1c(-c2cc3ccccc3nc2Oc2ccc(F)c(F)c2C)[nH]c(C)c(C(C)C(=O)OC)c1=O (stereo not shown) [Compound 24, ethyl 2-[2-(3,4-difluoro-2-methyl-phenoxy)-3-quinolyl]-5-(2-methoxy-1-methyl-2-oxo-ethyl)-6-methyl-4-oxo-1H-pyridine-3-carboxylate]
CCOC(=O)c1c(-c2cc3ccccc3nc2N2CCCC(F)(F)CC2)[nH]c(C)c(C(O)C(N)=O)c1=O (stereo not shown) [Compound 25, ethyl 5-(2-amino-1-hydroxy-2-oxo-ethyl)-2-[2-(4,4-difluoroazepan-1-yl)-3-quinolyl]-6-methyl-4-oxo-1H-pyridine-3-carboxylate]
CCOC(=O)c1c(-c2cc3ccccc3nc2N2CCCC(F)(F)CC2)[nH]c(C)c(C(C)C(=O)OC)c1=O (stereo not shown) [Compound 26, ethyl 2-[2-(4,4-difluoroazepan-1-yl)-3-quinolyl]-5-(2-methoxy-1-methyl-2-oxo-ethyl)-6-methyl-4-oxo-1H-pyridine-3-carboxylate]
CCOC(=O)c1c(-c2cc3cc(F)ccc3nc2N2CCCC(F)(F)CC2)[nH]c(C)c(OC)c1=O [Compound 27, ethyl 2-[2-(4,4-difluoroazepan-1-yl)-6-fluoro-3-quinolyl]-5-methoxy-6-methyl-4-oxo-1H-pyridine-3-carboxylate]
CCOC(=O)c1c(-c2cc3ccc(F)cc3nc2N2CCCC(F)(F)CC2)[nH]c(C)c(OC)c1=O [Compound 28, ethyl 2-[2-(4,4-difluoroazepan-1-yl)-7-fluoro-3-quinolyl]-5-methoxy-6-methyl-4-oxo-1H-pyridine-3-carboxylate]
CCOC(=O)c1c(-c2cc3c(nc2N2CCCC(F)(F)CC2)CCC3)[nH]c(C)c(OC)c1=O [Compound 29, ethyl 2-[2-(4,4-difluoroazepan-1-yl)-6,7-dihydro-5H-cyclopenta[b]pyridin-3-yl]-5-methoxy-6-methyl-4-oxo-1H-pyridine-3-carboxylate]
CCOC(=O)c1c(-c2cc3c(nc2N2CCCC(F)(F)CC2)CCCC3)[nH]c(C)c(OC)c1=O [Compound 30, ethyl 2-[2-(4,4-difluoroazepan-1-yl)-5,6,7,8-tetrahydroquinolin-3-yl]-5-methoxy-6-methyl-4-oxo-1H-pyridine-3-carboxylate]
CCOC(=O)c1c(-c2cc3ccccc3nc2Oc2ccc(F)c(F)c2C)[nH]c(C)c(CC(=O)OC)c1=O [Compound 31, ethyl 2-[2-(3,4-difluoro-2-methyl-phenoxy)-3-quinolyl]-5-(2-methoxy-2-oxo-ethyl)-6-methyl-4-oxo-1H-pyridine-3-carboxylate]
CCOC(=O)c1c(-c2cc(C(F)(F)F)cnc2N2CCCC(F)(F)CC2)[nH]c(C)c(C)c1=O [Compound 32, ethyl 2-[2-(4,4-difluoroazepan-1-yl)-5-(trifluoromethyl)-3-pyridyl]-5,6-dimethyl-4-oxo-1H-pyridine-3-carboxylate]
CCOC(=O)c1c(C)[nH]c(-c2cc(C(F)(F)F)cnc2Oc2ccc(F)c(F)c2C)c(C)c1=O [Compound 33, ethyl 6-[2-(3,4-difluoro-2-methyl-phenoxy)-5-(trifluoromethyl)-3-pyridyl]-2,5-dimethyl-4-oxo-1H-pyridine-3-carboxylate]
CCOC(=O)c1c(-c2cc3ccccc3nc2Oc2ccc(F)c(F)c2C)[nH]c(C)c(C(=O)C(N)=O)c1=O [Compound 35, ethyl 2-[2-(3,4-difluoro-2-methyl-phenoxy)-3-quinolyl]-6-methyl-5-oxamoyl-4-oxo-1H-pyridine-3-carboxylate]
CCOC(=O)c1c(C)[nH]c(-c2cc(C(F)(F)F)ncc2Oc2ccc(OC(F)(F)F)cc2OC)c(C)c1=O [Compound 36, ethyl 6-[5-[2-methoxy-4-(trifluoromethoxy)phenoxy]-2-(trifluoromethyl)-4-pyridyl]-2,5-dimethyl-4-oxo-1H-pyridine-3-carboxylate]
CCOC(=O)c1c(C)[nH]c(-c2cc(C)c(C(F)(F)F)nc2N2CCCC(F)(F)CC2)c(C(=O)OCC)c1=O [Compound 37, diethyl 2-[2-(4,4-difluoroazepan-1-yl)-5-methyl-6-(trifluoromethyl)-3-pyridyl]-6-methyl-4-oxo-1H-pyridine-3,5-dicarboxylate]
CCOC(=O)c1c(C)[nH]c(-c2cc(C)c(C(F)(F)F)nc2Oc2ccc(F)c(F)c2C)c(C(=O)OCC)c1=O [Compound 38, diethyl 2-[2-(3,4-difluoro-2-methyl-phenoxy)-5-methyl-6-(trifluoromethyl)-3-pyridyl]-6-methyl-4-oxo-1H-pyridine-3,5-dicarboxylate]
CCOC(=O)c1c(C)[nH]c(-c2cc3ccccc3nc2N2CCCC(F)(F)CC2)c(C(=O)OCC)c1=O [Compound 39, diethyl 2-[2-(4,4-difluoroazepan-1-yl)-3-quinolyl]-6-methyl-4-oxo-1H-pyridine-3,5-dicarboxylate]
CCOC(=O)c1c(C)[nH]c(-c2cc3ccccc3nc2Oc2ccc(F)c(F)c2C)c(C(=O)OCC)c1=O [Compound 40, diethyl 2-[2-(3,4-difluoro-2-methyl-phenoxy)-3-quinolyl]-6-methyl-4-oxo-1H-pyridine-3,5-dicarboxylate]
COC(=O)c1c(-c2cc(C)c(C(F)(F)F)nc2Oc2ccc(F)c(F)c2C)[nH]c(C)c(OC)c1=O [Compound 41, methyl 2-[2-(3,4-difluoro-2-methyl-phenoxy)-5-methyl-6-(trifluoromethyl)-3-pyridyl]-5-methoxy-6-methyl-4-oxo-1H-pyridine-3-carboxylate]
CCOC(=O)c1c(C)[nH]c(-c2c(Oc3ccc(F)c(F)c3C)ncc(C(F)(F)F)c2C)c(C)c1=O [Compound 42, ethyl 6-[2-(3,4-difluoro-2-methyl-phenoxy)-4-methyl-5-(trifluoromethyl)-3-pyridyl]-2,5-dimethyl-4-oxo-1H-pyridine-3-carboxylate]
COC(=O)c1c(-c2cc(C)c(C(F)(F)F)nc2N2CCCC(F)(F)CC2)[nH]c(C)c(OC)c1=O [Compound 44, methyl 2-[2-(4,4-difluoroazepan-1-yl)-5-methyl-6-(trifluoromethyl)-3-pyridyl]-5-methoxy-6-methyl-4-oxo-1H-pyridine-3-carboxylate]
CCOC(=O)c1c(C)[nH]c(-c2c(Oc3ccc(F)c(F)c3C)ncc(C(F)(F)F)c2C)cc1=O [Compound 46, ethyl 6-[2-(3,4-difluoro-2-methyl-phenoxy)-4-methyl-5-(trifluoromethyl)-3-pyridyl]-2-methyl-4-oxo-1H-pyridine-3-carboxylate]
COC(=O)c1c(-c2cc3ccccc3nc2N2CCCC(F)(F)CC2)[nH]c(C)c(OC)c1=O [Compound 47, methyl 2-[2-(4,4-difluoroazepan-1-yl)-3-quinolyl]-5-methoxy-6-methyl-4-oxo-1H-pyridine-3-carboxylate]
